Measurements taken from article PMC7819943, “Rice protein-binding microarrays: a tool to detect cis-acting elements near promoter regions in rice”.
Some of the results follow.

Amino acid sequences for entries named in this document (tags omitted).
UniProt Q0JBA9, entry or part of it: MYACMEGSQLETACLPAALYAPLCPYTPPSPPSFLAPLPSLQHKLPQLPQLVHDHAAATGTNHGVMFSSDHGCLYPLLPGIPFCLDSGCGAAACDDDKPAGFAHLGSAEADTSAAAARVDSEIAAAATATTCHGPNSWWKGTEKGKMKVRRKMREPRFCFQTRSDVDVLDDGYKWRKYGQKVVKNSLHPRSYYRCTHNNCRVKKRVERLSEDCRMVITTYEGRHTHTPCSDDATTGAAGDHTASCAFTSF

These sequences were tested against OsWRKY34 (Oryza sativa, UniProt Q0JBA9 1-250) (assay: protein-binding microarray (RPBM); PBS, 2% BSA, 51.3 ng/ul salmon testes DNA, 50 uM zinc acetate, 200 nM TF, 25 C, 1 h; high values mean tight binding). Details: protein: recombinant; tags: N-terminal polyhistidine and DsRed monomer fusion (pET32a); label: CyDye5-dUTP incorporated in the synthesized complementary strand; 3' TTTTT single-stranded linker to array surface; dsDNA, one strand shown.
Outline: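 The binding signal is fluorescence intensity per array feature (arbitrary units). Readings came from an Axon 4000B scanner after a washed, 2% BSA-blocked, double-stranded custom Agilent array had been incubated for 1 h at 25 °C with 200 nM protein and 50 µM zinc acetate. The protein was a Ni–NTA-purified transcription factor fused N-terminally to polyhistidine and DsRed, expressed in E. coli BL21-CodonPlus.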
With “CAACCGTCTGTTCCTTTTTGGATCAATGGGCCAACGTTGCCGGAGTCACCTAGTGCAG” the binding signal was 12700 fluorescence intensity (a.u.). “GGACCTTCTCGCGGCGCTGCACCTGGACGCGTCGAACCCGCGGAGTCACCTAGTGCAG” was tested, and the binding signal was 8170 fluorescence intensity (a.u.). With “TACTGCTTCAACAGGTCGCTGCAGCTCTCATTATCACGGCCGGAGTCACCTAGTGCAG” the binding signal was 8280 fluorescence intensity (a.u.). With “CCTCACTGACCCGCTCTCTCTTCTCTCATCTATATAGGCTCGGAGTCACCTAGTGCAG” the binding signal was 10300 fluorescence intensity (a.u.). “GCTCTTTCTTCATTTCAAAGGAGACCTTAGAATTCTCTTTCGGAGTCACCTAGTGCAG” was tested, and the binding signal was 8090 fluorescence intensity (a.u.). For “TTTTATTAACTGTAAACGTCACATGTTCTGTCATACGCGTCGGAGTCACCTAGTGCAG”, the binding signal was 9250 fluorescence intensity (a.u.). With “AACGTCCCACACTTCTCCACACCTTACGCGACCCCGAACCCGGAGTCACCTAGTGCAG” the binding signal was 8990 fluorescence intensity (a.u.). For “GTGGTCAAGAGCTTTGTTTTCTTTGTCACTTTTCATTATTCGGAGTCACCTAGTGCAG”, the binding signal was 10100 fluorescence intensity (a.u.). For “GCGACTCCCGTCGTCTCGTCGATTCCCAGTCCGACTCAGTCGGAGTCACCTAGTGCAG”, the binding signal was 8330 fluorescence intensity (a.u.). “ATACACATGCACATTTAGTTCCTCCCGGTAAGTTCGTCGTCGGAGTCACCTAGTGCAG” was tested, and the binding signal was 8260 fluorescence intensity (a.u.). For “TGTTTTTGCTTCTCTTCCTTTTGCTGGAGCTTATTGGTTTCGGAGTCACCTAGTGCAG”, the binding signal was 10100 fluorescence intensity (a.u.). In the case of “CTGCTCTCTCCTCCGCCTGATTCCTCATTCCTCCAACCAGCGGAGTCACCTAGTGCAG”, the binding signal was 8540 fluorescence intensity (a.u.). “GGTTGGGCGGGCGAGGAGGTGTGCCACGTCAGAATTTTGCCGGAGTCACCTAGTGCAG” was tested, and the binding signal was 10100 fluorescence intensity (a.u.). For “TGTACTTTTTCCTTGTTGATTTGGGCCTGCATGAATGATTCGGAGTCACCTAGTGCAG”, the binding signal was 10600 fluorescence intensity (a.u.). “GTGTAGTGTAGTGTAGTGTAGTGGAGTATGTATCTAATAACGGAGTCACCTAGTGCAG” was tested, and the binding signal was 10000 fluorescence intensity (a.u.). In the case of “TTGTATCTTTCAAAACTTCAGGAGTTTGTTTTTTTTGCACCGGAGTCACCTAGTGCAG”, the binding signal was 9460 fluorescence intensity (a.u.). For “CCCATTAAATCCCGTCCATTCGTTCGTTTTGATCCTACGGCGGAGTCACCTAGTGCAG”, the binding signal was 10100 fluorescence intensity (a.u.). “CCGCGGCGTACTACCCGGTCATCGCTGACCCTCTCCTGCACGGAGTCACCTAGTGCAG” was tested, and the binding signal was 8470 fluorescence intensity (a.u.). With “ACCTTCTAGTATTCTCCCGTCCAGCGCATCTGGACCGTCCCGGAGTCACCTAGTGCAG” the binding signal was 8310 fluorescence intensity (a.u.). In the case of “AAATCGTTTCTCAAGTCATTCAGGCATACTCACATCGCACCGGAGTCACCTAGTGCAG”, the binding signal was 8160 fluorescence intensity (a.u.). For “TCTCTCTTTCTGGGCGAGGCAAAGCGGTGGGTGCAGAGGGCGGAGTCACCTAGTGCAG”, the binding signal was 9370 fluorescence intensity (a.u.). “AAATGCTCTTTCTAAAACTCATTTCCTTGGCAAACGCATACGGAGTCACCTAGTGCAG” was tested, and the binding signal was 8940 fluorescence intensity (a.u.). With “GTGTTGGTTGACATCTCGGAGGATTTGGGTTTGAATTCAACGGAGTCACCTAGTGCAG” the binding signal was 8960 fluorescence intensity (a.u.). With “GAGTTATATTTTTCTTCCTTGGTTGTTTTTTTTCTCTCCTCGGAGTCACCTAGTGCAG” the binding signal was 8520 fluorescence intensity (a.u.). With “CAACCGCCGGCCACCTCTCTCTCCCAATTATCCTCTCCTCCGGAGTCACCTAGTGCAG” the binding signal was 9240 fluorescence intensity (a.u.). For “GATTTATGACTGGATTTCACTCGCGGAAGATAGTACGTTTCGGAGTCACCTAGTGCAG”, the binding signal was 8640 fluorescence intensity (a.u.). With “CACACCCAAAGTAAAGCCCTATATCGGTCTCTTCATTCTCCGGAGTCACCTAGTGCAG” the binding signal was 10600 fluorescence intensity (a.u.). For “GCGTGTCATTGCGCGGCCGCATCATTTCGTTTTTAAATATCGGAGTCACCTAGTGCAG”, the binding signal was 8270 fluorescence intensity (a.u.). “ATAGATTTTCTTCCACCCAGGCATGCTTTTTTCTCAGACTCGGAGTCACCTAGTGCAG” was tested, and the binding signal was 8660 fluorescence intensity (a.u.). For “CGACGTCGGTGGGTGGGTTGCCCTCGCCGGCTTGCCGCCTCGGAGTCACCTAGTGCAG”, the binding signal was 9020 fluorescence intensity (a.u.). In the case of “AGATCTTTGACCTTACTAGAACTTGTTTGGTGGGGTTCCACGGAGTCACCTAGTGCAG”, the binding signal was 10600 fluorescence intensity (a.u.). “GATTCCAACTTTCGATCGAGAGCCTCGCCGTCGATTCCCCCGGAGTCACCTAGTGCAG” was tested, and the binding signal was 8760 fluorescence intensity (a.u.). In the case of “CTGCTGCCGCCGCCTCCTGGCCGCCGCCGCGGCGAGCGCGCGGAGTCACCTAGTGCAG”, the binding signal was 8280 fluorescence intensity (a.u.). “TATTACTACCTTCATATTTTAATGTATGACGCCGTTGACTCGGAGTCACCTAGTGCAG” was tested, and the binding signal was 11900 fluorescence intensity (a.u.). With “ATCAATTCTTCTTTTTTGTGTTTTTCCCTTTCCCTTTTTTCGGAGTCACCTAGTGCAG” the binding signal was 10600 fluorescence intensity (a.u.). With “ACCCTGGAAAAATCCCCTTTTCCGTCCGTCCTAGTCCAGTCGGAGTCACCTAGTGCAG” the binding signal was 8380 fluorescence intensity (a.u.). “AACGTTACCACCGCGTTTTGGTGTCATTTTCAATGCTGCTCGGAGTCACCTAGTGCAG” was tested, and the binding signal was 8610 fluorescence intensity (a.u.). For “GCCTGCGCCGATCCCCATCCATTCCGCGAGCGAGCGAGTGCGGAGTCACCTAGTGCAG”, the binding signal was 8160 fluorescence intensity (a.u.). In the case of “CTTTGCGTCTCCTCCCCTTTCTAATCCACTTTTTATTTTTCGGAGTCACCTAGTGCAG”, the binding signal was 9730 fluorescence intensity (a.u.). For “GTCCATCCACAATACTGAAGTTAGATGCATTTAACTTTTTCGGAGTCACCTAGTGCAG”, the binding signal was 8970 fluorescence intensity (a.u.). With “ATCCGCCCCTGCTTCTCAATTTTTAACCCGGACATGTTTGCGGAGTCACCTAGTGCAG” the binding signal was 8570 fluorescence intensity (a.u.). For “GCCACCTCCTCCTCTATTTTGTTCTCCTCCGCCATCGCCACGGAGTCACCTAGTGCAG”, the binding signal was 11400 fluorescence intensity (a.u.).
